Library screening results

The chains behind the UniProt entries cited, without tags or fusion partners.
UniProt E9BF75, entry or part of it: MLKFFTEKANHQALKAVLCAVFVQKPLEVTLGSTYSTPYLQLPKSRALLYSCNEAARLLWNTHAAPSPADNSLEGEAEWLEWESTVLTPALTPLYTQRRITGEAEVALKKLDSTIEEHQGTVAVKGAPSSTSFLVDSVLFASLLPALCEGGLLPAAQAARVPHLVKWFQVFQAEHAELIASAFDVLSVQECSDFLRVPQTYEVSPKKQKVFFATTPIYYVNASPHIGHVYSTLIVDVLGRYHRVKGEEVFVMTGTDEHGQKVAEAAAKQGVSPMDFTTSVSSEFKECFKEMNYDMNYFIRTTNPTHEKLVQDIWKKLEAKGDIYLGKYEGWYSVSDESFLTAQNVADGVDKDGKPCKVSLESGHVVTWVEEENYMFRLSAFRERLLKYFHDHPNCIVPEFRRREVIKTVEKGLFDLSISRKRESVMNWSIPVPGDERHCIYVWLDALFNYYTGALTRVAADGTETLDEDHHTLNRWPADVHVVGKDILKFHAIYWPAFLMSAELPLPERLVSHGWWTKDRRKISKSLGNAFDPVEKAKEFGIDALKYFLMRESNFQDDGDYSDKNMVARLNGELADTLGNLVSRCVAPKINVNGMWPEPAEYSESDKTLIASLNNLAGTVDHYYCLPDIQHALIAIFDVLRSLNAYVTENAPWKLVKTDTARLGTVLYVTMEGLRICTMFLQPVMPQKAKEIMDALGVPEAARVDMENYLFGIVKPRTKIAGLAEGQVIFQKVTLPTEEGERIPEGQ

The values are deposited in ChEMBL (CHEMBL3988442, “University of Dundee, Small-Polar-MMV Screening Library” (2021)).

Results are percentages, as filed. The controls that fix the scale are not given in the record; negative values are as filed. The compounds are a random part of those screened.

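Primary screen of methionyl-tRNA synthetase; the read-out is not stated. Target: Methionyl-tRNA synthetase (putative), Leishmania donovani (UniProt E9BF75). The test concentration is not given. Values are per cent inhibition. About 68,000 compounds were tested under these conditions; 0.035% (about 24) showed 50% or more at least once.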

Result for CCS(=O)(=O)N1CCc2nc(N3CCOCC3)nc(N(C)C)c2CC1 was 14.13%. For CCSCCC(C)N(C)C(=O)c1cc(C)no1 (stereo not shown) the result was 7.444%. With CCCS(=O)(=O)N1CCC(NC(=O)c2cc3ccccc3s2)CC1 the screen gave 11.14%. For Cc1ncsc1CCN(C)Cc1cc2n(n1)CCN(S(C)(=O)=O)C2 the result was 10.14%. Cc1nn(C)c(C)c1CCC(=O)N1CCCC1Cn1cccn1 (stereo not shown) gave 17.14%. COc1ccc(OCCN2CCN(Cc3nccn3C)CC2)cc1 read 4.571%.

CCc1nnc2n1CCN(Cc1ncc(-c3ccc(F)cc3)o1)C2 gave 10.38%. Result for CCCN(Cc1nc(-c2ccc(F)c(OC)c2)oc1C)CC1CCCO1 (stereo not shown) was 18.61%. For CC(C)(C)c1nnc(CN2CCOC(Cn3cncn3)C2)o1 (stereo not shown) the result was 13.5%. Cn1cnnc1C1CCCN(C(=O)c2cnc3ccccc3n2)C1 (stereo not shown) gave 16.67%. For Cc1c[nH]c(C2CCCN(Cc3ccccc3C(=O)O)C2)n1 (stereo not shown) the result was 11.11%. For c1ccc(C(OCCNC2CCc3ncnn3C2)c2ccccc2)cc1 (stereo not shown) the result was 14.29%.

Cc1cc(C)n(CCC2CC(=O)Nc3cc4[nH]ncc4cc32)n1 (stereo not shown) gave 17.42%. CC(C)OCCN1CCC(C(=O)c2cc(F)ccc2F)CC1 read 18.99%. Result for CC(C)NC(=O)N1CCC2(CC1)Cc1ccccc1CN(C)C2=O was 12.09%. Result for Cc1nc(NCCc2noc(C3CCCO3)n2)c2sccc2n1 (stereo not shown) was 18.62%. For COC1CCCN(C(=O)NCCCF)C1 (stereo not shown) the result was 11.39%. For COc1cc(CN2CC[C@H](NC(C)=O)[C@@H](O)CC2)ccc1F the result was 3.39%.

For Cc1nn(C)cc1-c1ccnc(N(C)Cc2cnn(C)c2)n1 the result was 12.32%. For CC1=C[C@@H](CN2CCN(C)CC2)[C@H](C(C)C)C[C@H]1Cc1nnc(C)o1 the result was 8.271%. COCCN(Cc1ccoc1)C(=O)c1ccccc1OC gave 14.35%. Result for CCN(Cc1ccc2c(c1)OCO2)C(=O)NC(C)Cn1cccn1 (stereo not shown) was 7.692%. Result for CN(Cc1noc(C2CC2)n1)C1CCN(CCS(C)(=O)=O)C1 (stereo not shown) was 7.229%. Cc1cc(C2CCCCN2C(=O)c2ccsc2)nc2nccn12 (stereo not shown) read 10.97%.

CNC(=O)COc1nc(C(C)(C)C)no1 gave 10.87%. O=C(CN1CCc2ccccc21)Nc1ccc(OC(F)F)cc1 read 4.425%. Result for Cc1ccccc1CC(=O)NCCNc1nccc(C(F)(F)F)n1 was 23.64%. NC(=O)Cn1c(CO)cnc1SCC(=O)NCc1ccccc1Cl read -12.71%. Result for CN1CC2(CCN(C(=O)c3[nH]cnc3-c3ccccc3)C2)OC1=O (stereo not shown) was 9.804%. Result for CNc1cc2c(nn1)CCN(C(=O)c1cccc3c1OCO3)C2 was 9.312%.

Result for O=C(NCc1nncn1C1CC1)C1(c2ccc(F)cc2)CCCC1 was 13.61%. With COC(=O)CNC(=O)c1nc(-c2ccccc2OC)c2cnccn12 the screen gave 5.143%. CN(C)Cc1cnc2n1CCN(C(=O)NC1CCCC1)CC2 read 16.3%. Result for COc1ccc(COCC(O)CNC(=O)c2cc(C)cc(C)c2)cc1 (stereo not shown) was 15.28%. With Cc1ccc(Cn2ccc(NS(C)(=O)=O)n2)cc1 the screen gave 17.32%. For Cc1ccc(-c2n[nH]cc2CNCC2CCN(CC(C)O)CC2)cc1 (stereo not shown) the result was 23.93%.

COCCC(=O)N1C[C@H]2CCC[C@@]2(COC)C1 read 10.99%. c1ccc(-c2noc(CNC3CCc4ncnn4C3)n2)nc1 (stereo not shown) gave 8.571%. COCCCN1CC2(CCCCN2C(C)=O)CC1=O (stereo not shown) read 5.435%. With CCOc1ncccc1CNC(=O)N1CCCC1c1cc(C)no1 (stereo not shown) the screen gave 16.59%. With Cn1nccc1C(=O)N1Cc2cc(Cl)ccc2OC2(CCOCC2)C1 the screen gave 18.01%. With CCc1nccn1CCCNC(=O)CN1CCN(c2ncccn2)CC1 the screen gave 16.05%.

CC(C)Cc1noc(CN2CCCN(C(=O)c3ccccc3Cl)CC2)n1 read 2.017%. For CCCNC(=O)c1cncc(CC2CCCN(C)C2)c1 (stereo not shown) the result was 14.24%. CC[C@@]1(O)CCN(c2ncc(Cl)cc2C(F)(F)F)C[C@H]1O gave 2.135%. c1cnc(N2CCOCC3(CCCN(Cc4cccs4)C3)C2)nc1 (stereo not shown) gave 9.95%. Result for c1ccc2oc(CN3CCCC3Cn3cncn3)nc2c1 (stereo not shown) was 13.33%. Cc1cccc(-c2noc([C@@H]3C[C@@H](O)CN3C)n2)c1 gave 9.446%.

For O=C(c1ccccn1)N1C[C@@H]2CC[C@H](C1)N(C(=O)Cc1cccs1)C2 the result was 9.365%. Fc1cccc(N2CCOC3(CCCN(c4nncs4)C3)C2)c1 (stereo not shown) gave 12.06%. With Cc1ncsc1C(=O)NC1CCN(Cc2cccc3c2OCCO3)CC1 the screen gave 12.89%. For CN(C)CCNC(=O)Cn1cnc2cc(NC(=O)C3CC3)ccc21 the result was 15.59%. With Cc1cccc(N2CC[C@@H]3CN(C(=O)c4ccco4)CCO[C@@H]3C2)n1 the screen gave 14.98%. Result for Cc1nn(C)c(C)c1Cc1nc(N(C)C)no1 was 13.4%.

COc1ccc(NC(=O)Cn2nc(C)c(C)cc2=O)cc1Cl read 14.05%. Result for Cc1cccc(CN2C(=O)C[C@H]3[C@@H]2CCN3Cc2cccs2)n1 was 24.44%.

For reference, 4 entries once more:

compound,Inhibition
CCCS(=O)(=O)N1CCC(NC(=O)c2cc3ccccc3s2)CC1,11.14
CC(C)NC(=O)N1CCC2(CC1)Cc1ccccc1CN(C)C2=O,12.09
Fc1cccc(N2CCOC3(CCCN(c4nncs4)C3)C2)c1 (stereo not shown),12.06
O=C(NCc1nncn1C1CC1)C1(c2ccc(F)cc2)CCCC1,13.61